# This is one part of the list.
# Amino acid sequences for entries named in this document (tags omitted). A change or cut given only in a name is not applied to a line headed by its entry.
# UniProt P84095: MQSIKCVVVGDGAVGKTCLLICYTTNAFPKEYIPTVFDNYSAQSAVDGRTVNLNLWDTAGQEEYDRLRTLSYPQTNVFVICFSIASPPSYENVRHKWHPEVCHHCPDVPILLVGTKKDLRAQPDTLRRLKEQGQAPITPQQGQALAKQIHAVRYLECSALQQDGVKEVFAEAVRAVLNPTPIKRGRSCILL
# UniProt Q9H871: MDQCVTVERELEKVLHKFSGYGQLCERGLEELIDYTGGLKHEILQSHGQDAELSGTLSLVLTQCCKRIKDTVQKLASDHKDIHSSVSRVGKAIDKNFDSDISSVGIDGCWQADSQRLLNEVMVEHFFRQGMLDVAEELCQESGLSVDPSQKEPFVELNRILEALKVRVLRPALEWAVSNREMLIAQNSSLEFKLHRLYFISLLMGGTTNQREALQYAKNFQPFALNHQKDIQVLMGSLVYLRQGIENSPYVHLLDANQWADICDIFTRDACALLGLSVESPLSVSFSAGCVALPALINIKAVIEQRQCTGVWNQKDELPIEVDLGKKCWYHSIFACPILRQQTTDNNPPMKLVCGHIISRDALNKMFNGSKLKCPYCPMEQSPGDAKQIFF
# UniProt Q5UIP0: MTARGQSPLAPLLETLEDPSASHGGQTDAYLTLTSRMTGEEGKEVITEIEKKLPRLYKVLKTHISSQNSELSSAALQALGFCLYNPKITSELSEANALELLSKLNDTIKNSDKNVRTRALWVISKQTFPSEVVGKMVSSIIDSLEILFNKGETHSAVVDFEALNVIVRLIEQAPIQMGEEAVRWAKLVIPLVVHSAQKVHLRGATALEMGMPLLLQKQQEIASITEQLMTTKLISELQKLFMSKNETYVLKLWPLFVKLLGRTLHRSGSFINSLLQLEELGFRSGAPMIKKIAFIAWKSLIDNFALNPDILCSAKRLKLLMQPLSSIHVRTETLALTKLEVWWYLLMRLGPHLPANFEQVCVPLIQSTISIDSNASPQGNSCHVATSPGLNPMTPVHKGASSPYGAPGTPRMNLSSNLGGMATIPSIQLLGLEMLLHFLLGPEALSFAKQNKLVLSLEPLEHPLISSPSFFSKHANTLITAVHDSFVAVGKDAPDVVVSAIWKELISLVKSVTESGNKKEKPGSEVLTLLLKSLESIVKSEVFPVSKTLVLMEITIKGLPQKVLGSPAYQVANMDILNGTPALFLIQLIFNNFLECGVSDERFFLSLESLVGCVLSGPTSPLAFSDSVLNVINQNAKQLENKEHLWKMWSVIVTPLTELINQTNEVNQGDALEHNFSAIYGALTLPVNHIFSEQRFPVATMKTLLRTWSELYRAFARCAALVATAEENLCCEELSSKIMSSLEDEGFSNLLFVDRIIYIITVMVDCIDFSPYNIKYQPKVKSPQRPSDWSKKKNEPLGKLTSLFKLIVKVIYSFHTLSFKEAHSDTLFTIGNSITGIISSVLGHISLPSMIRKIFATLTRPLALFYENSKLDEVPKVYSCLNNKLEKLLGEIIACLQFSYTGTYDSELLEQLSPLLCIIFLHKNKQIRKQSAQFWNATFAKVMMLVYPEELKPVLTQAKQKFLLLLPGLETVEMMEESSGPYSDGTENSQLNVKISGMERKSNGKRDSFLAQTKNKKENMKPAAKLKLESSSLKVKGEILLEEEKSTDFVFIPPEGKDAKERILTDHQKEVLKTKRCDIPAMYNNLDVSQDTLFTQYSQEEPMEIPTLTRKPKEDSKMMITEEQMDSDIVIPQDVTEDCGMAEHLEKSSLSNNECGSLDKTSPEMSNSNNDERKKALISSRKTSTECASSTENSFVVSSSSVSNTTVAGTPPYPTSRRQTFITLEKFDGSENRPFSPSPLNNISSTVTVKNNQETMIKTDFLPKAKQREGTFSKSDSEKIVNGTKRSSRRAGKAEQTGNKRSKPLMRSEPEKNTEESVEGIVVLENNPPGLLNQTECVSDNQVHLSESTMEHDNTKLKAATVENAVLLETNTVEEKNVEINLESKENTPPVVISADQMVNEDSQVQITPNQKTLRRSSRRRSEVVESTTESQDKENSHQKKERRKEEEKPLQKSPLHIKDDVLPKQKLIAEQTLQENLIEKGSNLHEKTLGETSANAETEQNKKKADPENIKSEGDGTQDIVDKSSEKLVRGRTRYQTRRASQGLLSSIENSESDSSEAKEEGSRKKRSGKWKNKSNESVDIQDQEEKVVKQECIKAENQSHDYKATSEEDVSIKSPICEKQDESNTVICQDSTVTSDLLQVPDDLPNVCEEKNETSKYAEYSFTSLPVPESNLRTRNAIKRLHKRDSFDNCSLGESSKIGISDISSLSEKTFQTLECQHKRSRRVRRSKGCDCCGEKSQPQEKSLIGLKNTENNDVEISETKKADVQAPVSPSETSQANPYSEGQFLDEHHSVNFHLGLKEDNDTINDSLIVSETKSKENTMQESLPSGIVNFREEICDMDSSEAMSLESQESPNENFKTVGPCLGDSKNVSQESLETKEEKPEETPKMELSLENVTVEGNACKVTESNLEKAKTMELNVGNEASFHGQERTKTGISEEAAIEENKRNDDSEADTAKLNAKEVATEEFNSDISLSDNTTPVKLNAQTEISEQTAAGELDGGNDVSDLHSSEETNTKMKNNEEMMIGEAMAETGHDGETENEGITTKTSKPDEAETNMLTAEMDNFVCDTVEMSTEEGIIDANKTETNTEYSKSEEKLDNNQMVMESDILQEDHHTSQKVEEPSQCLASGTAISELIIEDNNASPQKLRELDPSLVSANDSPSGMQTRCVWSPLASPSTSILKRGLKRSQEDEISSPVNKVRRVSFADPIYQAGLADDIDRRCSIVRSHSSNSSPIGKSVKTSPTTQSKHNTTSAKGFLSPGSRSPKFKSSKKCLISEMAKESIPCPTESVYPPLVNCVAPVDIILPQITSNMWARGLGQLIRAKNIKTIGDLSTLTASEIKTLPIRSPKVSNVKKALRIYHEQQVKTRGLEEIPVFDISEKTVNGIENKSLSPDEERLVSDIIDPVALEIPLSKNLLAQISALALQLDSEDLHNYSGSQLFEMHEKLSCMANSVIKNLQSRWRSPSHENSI
# UniProt P35250, whole entry, looked up: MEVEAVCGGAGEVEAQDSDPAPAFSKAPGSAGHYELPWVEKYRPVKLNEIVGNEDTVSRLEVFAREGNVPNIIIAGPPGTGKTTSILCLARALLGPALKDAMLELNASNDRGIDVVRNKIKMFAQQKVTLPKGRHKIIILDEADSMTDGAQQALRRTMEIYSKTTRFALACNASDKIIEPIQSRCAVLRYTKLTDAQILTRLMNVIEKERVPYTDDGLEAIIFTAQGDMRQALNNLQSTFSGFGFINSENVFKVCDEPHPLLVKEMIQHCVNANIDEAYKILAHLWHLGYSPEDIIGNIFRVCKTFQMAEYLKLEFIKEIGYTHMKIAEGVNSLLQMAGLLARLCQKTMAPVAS
# UniProt Q92546: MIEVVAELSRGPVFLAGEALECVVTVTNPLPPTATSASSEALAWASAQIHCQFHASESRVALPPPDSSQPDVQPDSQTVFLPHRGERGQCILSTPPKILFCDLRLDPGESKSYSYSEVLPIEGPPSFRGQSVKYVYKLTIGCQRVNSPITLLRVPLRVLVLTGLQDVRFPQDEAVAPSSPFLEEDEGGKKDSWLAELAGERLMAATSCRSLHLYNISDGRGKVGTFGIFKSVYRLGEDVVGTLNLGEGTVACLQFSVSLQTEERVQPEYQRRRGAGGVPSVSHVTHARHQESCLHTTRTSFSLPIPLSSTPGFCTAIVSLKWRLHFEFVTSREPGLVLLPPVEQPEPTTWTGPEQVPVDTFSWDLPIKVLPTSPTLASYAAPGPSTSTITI
# UniProt Q9Y508: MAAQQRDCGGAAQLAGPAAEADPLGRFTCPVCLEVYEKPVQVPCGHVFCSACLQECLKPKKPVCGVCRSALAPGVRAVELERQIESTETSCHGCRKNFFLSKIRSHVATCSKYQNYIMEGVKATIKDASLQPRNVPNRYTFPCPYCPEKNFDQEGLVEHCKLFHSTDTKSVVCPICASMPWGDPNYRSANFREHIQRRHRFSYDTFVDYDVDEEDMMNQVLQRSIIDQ
# UniProt O14730: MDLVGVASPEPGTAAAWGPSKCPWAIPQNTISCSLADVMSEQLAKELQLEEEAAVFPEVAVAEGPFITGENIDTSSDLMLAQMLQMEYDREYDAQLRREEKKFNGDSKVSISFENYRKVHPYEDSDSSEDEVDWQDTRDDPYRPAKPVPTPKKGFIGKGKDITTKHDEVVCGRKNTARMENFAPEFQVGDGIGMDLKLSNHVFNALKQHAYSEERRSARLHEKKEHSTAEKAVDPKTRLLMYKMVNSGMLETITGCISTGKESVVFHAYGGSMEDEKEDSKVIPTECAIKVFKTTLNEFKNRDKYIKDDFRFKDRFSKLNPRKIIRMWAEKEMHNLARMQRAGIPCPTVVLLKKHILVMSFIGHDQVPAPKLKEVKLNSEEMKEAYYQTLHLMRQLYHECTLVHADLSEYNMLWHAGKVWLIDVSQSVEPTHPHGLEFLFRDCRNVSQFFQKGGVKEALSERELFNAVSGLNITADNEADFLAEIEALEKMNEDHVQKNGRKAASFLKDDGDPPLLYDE
# UniProt Q04864: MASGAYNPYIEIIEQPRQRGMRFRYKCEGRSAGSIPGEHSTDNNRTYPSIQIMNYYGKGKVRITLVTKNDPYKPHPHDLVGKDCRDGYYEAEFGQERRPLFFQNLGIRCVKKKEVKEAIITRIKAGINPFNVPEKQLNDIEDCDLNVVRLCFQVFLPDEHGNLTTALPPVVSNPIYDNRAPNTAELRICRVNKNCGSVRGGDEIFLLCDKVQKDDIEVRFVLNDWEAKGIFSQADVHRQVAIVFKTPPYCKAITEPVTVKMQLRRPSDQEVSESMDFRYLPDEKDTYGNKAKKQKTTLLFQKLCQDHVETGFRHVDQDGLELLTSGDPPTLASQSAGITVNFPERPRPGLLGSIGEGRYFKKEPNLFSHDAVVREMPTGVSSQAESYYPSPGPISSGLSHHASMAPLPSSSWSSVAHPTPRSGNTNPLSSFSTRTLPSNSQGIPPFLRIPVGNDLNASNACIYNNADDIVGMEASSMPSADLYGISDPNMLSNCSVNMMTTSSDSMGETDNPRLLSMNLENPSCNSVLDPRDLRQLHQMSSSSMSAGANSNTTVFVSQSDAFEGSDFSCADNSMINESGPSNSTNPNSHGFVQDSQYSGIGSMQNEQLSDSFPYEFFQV
# UniProt P51606: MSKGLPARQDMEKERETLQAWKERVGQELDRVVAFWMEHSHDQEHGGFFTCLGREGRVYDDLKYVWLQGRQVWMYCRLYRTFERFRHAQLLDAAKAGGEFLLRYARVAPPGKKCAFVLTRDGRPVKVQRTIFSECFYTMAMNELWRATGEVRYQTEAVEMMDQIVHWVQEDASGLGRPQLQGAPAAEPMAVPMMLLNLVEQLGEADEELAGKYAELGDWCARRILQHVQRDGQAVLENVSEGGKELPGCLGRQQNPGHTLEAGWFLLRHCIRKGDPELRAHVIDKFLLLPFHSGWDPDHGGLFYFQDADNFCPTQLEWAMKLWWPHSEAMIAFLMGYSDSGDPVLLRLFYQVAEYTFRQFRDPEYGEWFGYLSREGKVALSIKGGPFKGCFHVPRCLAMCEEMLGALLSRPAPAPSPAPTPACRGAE
# UniProt Q969G6: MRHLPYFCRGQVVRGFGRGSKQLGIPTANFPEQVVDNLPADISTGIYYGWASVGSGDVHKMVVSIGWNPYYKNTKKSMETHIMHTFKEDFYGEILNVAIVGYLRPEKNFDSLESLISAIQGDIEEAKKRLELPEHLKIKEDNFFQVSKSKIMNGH
# UniProt O75792: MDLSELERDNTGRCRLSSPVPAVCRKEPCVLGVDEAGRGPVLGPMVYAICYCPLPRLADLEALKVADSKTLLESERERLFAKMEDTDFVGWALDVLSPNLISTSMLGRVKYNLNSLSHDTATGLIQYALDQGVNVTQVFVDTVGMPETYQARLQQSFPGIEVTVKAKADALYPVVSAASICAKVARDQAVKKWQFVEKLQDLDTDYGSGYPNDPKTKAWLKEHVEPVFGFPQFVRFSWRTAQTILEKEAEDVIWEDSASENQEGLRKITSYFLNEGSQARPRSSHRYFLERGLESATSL
# UniProt Q9BVS4: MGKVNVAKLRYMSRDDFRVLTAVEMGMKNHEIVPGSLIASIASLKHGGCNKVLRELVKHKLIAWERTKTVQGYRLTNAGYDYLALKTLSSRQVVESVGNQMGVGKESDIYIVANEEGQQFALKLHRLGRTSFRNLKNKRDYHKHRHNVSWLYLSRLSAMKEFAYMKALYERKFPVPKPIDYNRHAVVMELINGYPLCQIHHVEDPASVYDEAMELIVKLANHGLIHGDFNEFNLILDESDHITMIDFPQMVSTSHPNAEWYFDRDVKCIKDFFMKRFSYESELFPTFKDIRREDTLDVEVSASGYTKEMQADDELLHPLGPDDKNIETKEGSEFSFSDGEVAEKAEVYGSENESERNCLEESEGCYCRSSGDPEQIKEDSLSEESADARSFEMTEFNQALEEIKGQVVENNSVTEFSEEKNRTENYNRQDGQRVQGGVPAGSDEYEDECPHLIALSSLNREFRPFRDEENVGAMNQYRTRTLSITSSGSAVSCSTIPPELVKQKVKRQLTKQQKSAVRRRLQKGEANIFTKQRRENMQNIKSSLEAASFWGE
# Compound: CC1Cc2ccccc2N1C(=O)C1CCCN(C1)C(=O)CCl (mixture of isomers) [TRIM25 ligand 11 (diastereomer mixture)]
# Assay: probe-labelled cysteine peptide fold change vs DMSO (competition) (log2 fold change); higher = less target engagement (more negative = stronger competition)
# Conditions: 10 µM; THP-1; incubation time: 4 h
# 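Note: competitive chemoproteomic profiling in live THP-1 cells with an iodoacetamide desthiobiotin (IA-DTB) probe, comparing probe-labelled peptide intensities in compound-treated cells against DMSO-treated controls.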
row,Target,probe-labelled cysteine peptide fold change
1,RHOG_P84095_18_TCLLICYTTNAFPK (UniProt P84095),-0.128
2,RMND5A_Q9H871_328+336_CWYHSIFACPILR (UniProt Q9H871),-0.0879
3,RICTOR_Q6R327_778_TISSEALDILDEACEDK (UniProt Q6R327),0.0267
4,RIF1_Q5UIP0_2450_LSCMANSVIK (UniProt Q5UIP0),-0.0856
5,RMND5A_Q9H871_354_LVCGHIISR (UniProt Q9H871),0.0141
6,RNASEH2B_Q5TBB1_7_AAGVDCGDGVGAR (UniProt Q5TBB1),-0.0431
7,RIF1_Q5UIP0_731_CAALVATAEENLCCEELSSK (UniProt Q5UIP0),0.368
8,RGMB_Q6NW40_226_ITIIFKAHHECTDQK (UniProt Q6NW40),-0.5
9,RFC2_P35250_171_FALACNASDK (UniProt P35250),0.0743
10,RGP1_Q92546_90_GQCILSTPPK (UniProt Q92546),-0.0252
11,RMI1_Q9H9A7_366_FSHNPNTTNNFSLTCK (UniProt Q9H9A7),0.0381
12,RNF114_Q9Y508_8_DCGGAAQLAGPAAEADPLGR (UniProt Q9Y508),0.00249
13,RIOK3_O14730_346_AGIPCPTVVLLK (UniProt O14730),0.0766
14,REL_Q04864_143_QLNDIEDCDLNVVR (UniProt Q04864),-0.0385
15,RENBP_P51606_114_CAFVLTR (UniProt P51606),-0.0186
16,RIF1_Q5UIP0_2274_CLISEMAK (UniProt Q5UIP0),0.00652
17,RFT1_Q96AA3_70_ACLSGGTQR (UniProt Q96AA3),-0.0678
18,RIN1_Q13671_623_LPATHCFQHLLR (UniProt Q13671),-0.0806

# 2 entries from above, set out differently.
row | Target | probe-labelled cysteine peptide fold change
13 | RIOK3_O14730_346_AGIPCPTVVLLK (UniProt O14730) | 0.0766
14 | REL_Q04864_143_QLNDIEDCDLNVVR (UniProt Q04864) | -0.0385

# (listing goes on)

row,Target,probe-labelled cysteine peptide fold change
1,RFK_Q969G6_8_HLPYFCR (UniProt Q969G6),-0.0301
2,RNASEH2A_O75792_24_LSSPVPAVCR (UniProt O75792),-0.0996
3,RIF1_Q5UIP0_1155_SSLSNNECGSLDK (UniProt Q5UIP0),-0.092
4,RENBP_P51606_135_TIFSECFYTMAMNELWR (UniProt P51606),0.397
5,RIOK2_Q9BVS4_449_VQGGVPAGSDEYEDECPHLIALSSLNR (UniProt Q9BVS4),-0.148
6,RMDN3_Q96TC7_128_CHMEENQR (UniProt Q96TC7),0.0409
7,RNASEH2A_O75792_29_EPCVLGVDEAGR (UniProt O75792),-0.197
8,RFC2_P35250_88_TTSILCLAR (UniProt P35250),-0.0728
9,RIPOR1_Q6ZS17_1191_QSLQQCGEEGQSAHR (UniProt Q6ZS17),0.156
10,RMDN1_Q96DB5_170_WYAICLSDVGDYEGIK (UniProt Q96DB5),0.268
11,RFFL_Q8WZ73_123_DYLSLHDISTEMCR (UniProt Q8WZ73),0.169
12,RHBDF2_Q6PJF5_500_DSGCCVQNDHSGCIQTQR (UniProt Q6PJF5),0.0324
13,RFC4_P35249_48_CVDEVAFQEEVVAVLK (UniProt P35249),0.188
14,RHOG_P84095_105_WHPEVCHHCPDVPILLVGTKK (UniProt P84095),-0.292
15,RET_P07949_987_LMLQCWK (UniProt P07949),-0.0567
16,RDH10_Q8IZV5_170_TMMVNCHAHFWTTK (UniProt Q8IZV5),-0.157
17,RECQL4_O94761_1088_TFQAFHSVAFPSCGPCLEQQDEER (UniProt O94761),0.186
18,RELCH_Q9P260_548_REELIPLILCTACLHPEPK (UniProt Q9P260),0.228

# — the supplement of paper PMC12067093, “Discovery and optimisation of a covalent ligand for TRIM25 and its application to targeted protein ubiquitination” (Chemical Science, 2025)
